In PMC5996148 one finds binding signal data, which are given here for one sequence.

Test systems include PTMS (human); PTPN1 (human); PTPN2 (human); PTPN5 (human); PVALB (human); PXN (human); PYCR1 (human); Paladin (human).
Common to all, as to test: protein microarray (ProtoArray v5.0), streptavidin-Alexa Fluor 647
Common to all, as to details: 3'-biotin; 20 mM Tris (pH 7.5), 5 mM MgCl2, 100 mM KCl, 0.1% Tween-20, A/T-rich and random oligonucleotide blockers; temperature not stated; high values mean tight binding

Assay [1] deals with Pantothenate kinase 1 (human).
Assay [2] relates to Parvalbumin alpha (human).

Values joined by “and” are separate entries in the source; they are usually repeats but may differ in a detail not shown here. Equal entries are not always repeated. The list shows a part of the results.

“GGTGACAGGGGTATGGGGAGGGG [G4-2 biotinylated (Ct1)]”: the binding signal in the assay with PTMS (human) was -0.371 z-score; in the assay on PTPN1 (human), -0.39 z-score; in the assay on PTPN2 (human) it was -0.382 z-score; in the assay on PTPN5 (human), -0.379 z-score; with PVALB (human), -0.386 z-score; in the assay on PXN (human), -0.379 z-score. For the same sequence, the binding signal in the assay on PYCR1 (human) is -0.385 z-score; with Paladin (human), -0.365 z-score; in [1], -0.366 z-score and -0.392 z-score; in assay [2], -0.391 z-score.
